Test results taken from publication PMC6612642.
Results are given in words; binding and its absence hold for the method and conditions named. In cells and extracts the contact can be indirect. Some binding calls cover weakened binding; strength is not graded here.

By UniProt entry, the sequences of proteins in these tests, tags left out.
UniProt P23804: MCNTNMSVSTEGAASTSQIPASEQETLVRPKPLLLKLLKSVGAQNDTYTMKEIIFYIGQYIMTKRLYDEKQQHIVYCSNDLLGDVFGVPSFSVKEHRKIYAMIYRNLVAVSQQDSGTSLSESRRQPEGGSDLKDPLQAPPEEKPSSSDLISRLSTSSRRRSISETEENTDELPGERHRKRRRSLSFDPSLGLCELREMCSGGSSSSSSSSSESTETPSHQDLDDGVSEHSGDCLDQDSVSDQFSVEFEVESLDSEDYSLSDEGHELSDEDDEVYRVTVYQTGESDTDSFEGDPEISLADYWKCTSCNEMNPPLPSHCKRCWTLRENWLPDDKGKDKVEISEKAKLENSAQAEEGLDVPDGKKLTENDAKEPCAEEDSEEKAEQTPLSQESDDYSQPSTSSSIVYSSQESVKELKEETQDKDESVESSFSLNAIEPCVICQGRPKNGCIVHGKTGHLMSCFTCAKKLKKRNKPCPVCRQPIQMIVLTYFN
UniProt Q9WUD1: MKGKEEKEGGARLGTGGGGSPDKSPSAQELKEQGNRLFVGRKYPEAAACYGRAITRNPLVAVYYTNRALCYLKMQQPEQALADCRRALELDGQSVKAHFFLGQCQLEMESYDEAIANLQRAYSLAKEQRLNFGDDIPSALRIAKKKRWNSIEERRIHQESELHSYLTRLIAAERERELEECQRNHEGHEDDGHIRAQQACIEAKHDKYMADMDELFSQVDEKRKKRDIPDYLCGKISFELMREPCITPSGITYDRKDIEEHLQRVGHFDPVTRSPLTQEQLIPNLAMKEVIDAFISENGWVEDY
UniProt Q01815: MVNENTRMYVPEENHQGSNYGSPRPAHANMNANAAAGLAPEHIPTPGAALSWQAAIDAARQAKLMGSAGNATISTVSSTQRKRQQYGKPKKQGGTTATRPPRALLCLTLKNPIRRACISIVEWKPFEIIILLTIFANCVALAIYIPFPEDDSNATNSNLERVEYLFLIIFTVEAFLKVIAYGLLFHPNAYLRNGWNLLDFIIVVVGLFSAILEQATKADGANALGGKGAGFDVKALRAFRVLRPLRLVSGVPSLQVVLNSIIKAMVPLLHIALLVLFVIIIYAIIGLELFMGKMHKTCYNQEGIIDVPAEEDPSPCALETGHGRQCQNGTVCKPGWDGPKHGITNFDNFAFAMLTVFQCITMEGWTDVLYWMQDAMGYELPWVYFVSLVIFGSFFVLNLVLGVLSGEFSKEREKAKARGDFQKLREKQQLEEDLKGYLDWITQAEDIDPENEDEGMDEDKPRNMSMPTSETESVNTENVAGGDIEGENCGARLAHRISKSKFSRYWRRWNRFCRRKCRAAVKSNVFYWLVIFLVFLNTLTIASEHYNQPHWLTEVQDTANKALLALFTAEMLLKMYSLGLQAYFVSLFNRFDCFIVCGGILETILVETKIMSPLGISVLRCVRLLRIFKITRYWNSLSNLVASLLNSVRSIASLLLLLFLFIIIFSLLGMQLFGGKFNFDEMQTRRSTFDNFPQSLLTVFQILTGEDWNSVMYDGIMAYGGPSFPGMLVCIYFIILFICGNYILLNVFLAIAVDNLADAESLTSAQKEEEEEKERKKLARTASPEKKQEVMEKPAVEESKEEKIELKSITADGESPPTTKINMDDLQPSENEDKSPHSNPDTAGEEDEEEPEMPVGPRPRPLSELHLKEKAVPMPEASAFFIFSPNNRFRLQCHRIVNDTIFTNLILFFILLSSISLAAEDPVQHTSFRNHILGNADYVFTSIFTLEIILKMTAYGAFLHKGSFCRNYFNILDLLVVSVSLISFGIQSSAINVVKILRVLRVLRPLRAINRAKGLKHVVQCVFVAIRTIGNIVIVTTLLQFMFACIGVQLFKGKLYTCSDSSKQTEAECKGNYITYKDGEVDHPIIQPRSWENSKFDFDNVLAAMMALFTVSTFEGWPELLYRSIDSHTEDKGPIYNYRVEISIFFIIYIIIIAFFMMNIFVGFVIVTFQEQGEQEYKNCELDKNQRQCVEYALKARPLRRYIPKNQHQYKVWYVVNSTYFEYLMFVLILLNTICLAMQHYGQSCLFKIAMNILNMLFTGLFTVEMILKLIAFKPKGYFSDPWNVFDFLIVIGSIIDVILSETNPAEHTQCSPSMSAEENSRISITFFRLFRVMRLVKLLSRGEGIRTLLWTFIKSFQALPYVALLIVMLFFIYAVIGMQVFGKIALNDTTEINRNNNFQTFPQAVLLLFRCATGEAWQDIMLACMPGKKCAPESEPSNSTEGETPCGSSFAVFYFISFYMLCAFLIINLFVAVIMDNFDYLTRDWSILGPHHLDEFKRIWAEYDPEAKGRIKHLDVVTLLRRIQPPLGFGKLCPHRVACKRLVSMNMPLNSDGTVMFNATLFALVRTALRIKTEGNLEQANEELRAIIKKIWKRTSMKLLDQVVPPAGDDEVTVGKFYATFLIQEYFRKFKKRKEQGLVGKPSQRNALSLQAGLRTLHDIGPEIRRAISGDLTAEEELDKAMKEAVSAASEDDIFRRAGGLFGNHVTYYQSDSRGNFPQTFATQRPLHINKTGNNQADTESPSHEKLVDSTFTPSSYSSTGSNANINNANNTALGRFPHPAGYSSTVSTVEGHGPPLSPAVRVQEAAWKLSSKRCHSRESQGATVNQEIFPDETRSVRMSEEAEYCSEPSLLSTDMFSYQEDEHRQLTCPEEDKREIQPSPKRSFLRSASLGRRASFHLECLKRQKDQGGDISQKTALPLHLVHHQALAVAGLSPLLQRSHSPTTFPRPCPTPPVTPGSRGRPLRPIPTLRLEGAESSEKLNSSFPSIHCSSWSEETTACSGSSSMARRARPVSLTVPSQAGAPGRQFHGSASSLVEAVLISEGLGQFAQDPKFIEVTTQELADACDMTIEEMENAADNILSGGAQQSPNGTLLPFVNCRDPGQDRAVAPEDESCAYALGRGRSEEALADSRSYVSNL
UniProt P19785: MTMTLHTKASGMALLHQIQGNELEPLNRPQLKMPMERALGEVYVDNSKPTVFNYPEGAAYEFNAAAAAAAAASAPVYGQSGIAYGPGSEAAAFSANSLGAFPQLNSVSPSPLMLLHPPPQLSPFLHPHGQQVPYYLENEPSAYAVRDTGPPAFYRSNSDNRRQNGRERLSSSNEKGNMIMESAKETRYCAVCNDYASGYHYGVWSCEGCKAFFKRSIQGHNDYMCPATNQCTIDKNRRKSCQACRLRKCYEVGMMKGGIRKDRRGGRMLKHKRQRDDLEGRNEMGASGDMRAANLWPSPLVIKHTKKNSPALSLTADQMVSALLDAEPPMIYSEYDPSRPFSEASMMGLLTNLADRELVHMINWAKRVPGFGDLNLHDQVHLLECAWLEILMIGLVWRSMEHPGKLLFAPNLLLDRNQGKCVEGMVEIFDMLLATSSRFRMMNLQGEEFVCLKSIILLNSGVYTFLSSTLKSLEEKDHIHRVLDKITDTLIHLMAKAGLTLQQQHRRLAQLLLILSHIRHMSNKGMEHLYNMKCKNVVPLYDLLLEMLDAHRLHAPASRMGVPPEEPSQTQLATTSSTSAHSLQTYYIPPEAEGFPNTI

Legend:
[1] = target: E3 ligase Mdm2 (double minute 2 protein) (mouse (endogenous in HT22 and in mouse hippocampus)) (UniProt P23804); assay: co-IP; HT22 cell extracts (0.5 mg) pre-cleared with protein A agarose, antibody 1 hr, protein A agarose overnight at 4°C; control IgG; cells with or without PPT (Figure 3b)
[2] = target: E3 ligase Mdm2 (double minute 2 protein) (mouse (endogenous in HT22 and in mouse hippocampus)) (UniProt P23804); assay: co-IP; hippocampal extracts of OVX APP/PS1 mice, immunoprecipitated by Mdm2 antibody, protein A agarose overnight at 4°C; mice with or without PPT treatment
[3] = target: CHIP (STIP1 homology and U-Box-containing protein 1, STUB1) (UniProt Q9WUD1); assay: co-IP; HT22 cell extracts (0.5 mg) pre-cleared with protein A agarose, antibody 1 hr, protein A agarose overnight at 4°C; control IgG; cells with or without PPT (Figure 3b)
[4] = target: Cav1.2, pore-forming subunit of L-type voltage-gated calcium channel (LTCC) (mouse (endogenous in HT22 and in mouse hippocampus)) (UniProt Q01815); assay: as above

Row | Substance | binding [1] | binding [2] | binding [3] | binding [4]
1 | Estrogen receptor α (from UniProt P19785 1-599) | binds | binds | – | –
2 | Cav1.2, pore-forming subunit of L-type voltage-gated calcium channel (LTCC) (from UniProt Q01815 1-2139) | binds | binds | no binding | –
3 | E3 ligase Mdm2 (double minute 2 protein) (from UniProt P23804 1-489) (enzyme) | – | – | – | binds
